According to article PMC3119699, “Characterizing the Role of Cell-Wall β-1,3-Exoglucanase Xog1p in Candida albicans Adhesion by the Human Antimicrobial Peptide LL-37” (PLoS ONE, 2011):
These are yes or no findings as the source states them, for the method shown. Some entries that bind do so weakly or less than the wild type. Sequences can lack the tags named with a protein.

What was measured:
[1] = target: T1, Xog1p, cell-wall β-1,3-exoglucanase of C. albicans (endogenous) (C. albicans (endogenous in SC5314)) (UniProt P29717); assay: flow cytometry on cells; C. albicans wild type, XOG1-deletion and XOG1-reintegrated strains (6×10^6 cells) with 10 µg BA-LL37 in 750 µl PBS, 4°C overnight; SA-DTAF; normalised to the wild type; only the binder purified
T1 sequence: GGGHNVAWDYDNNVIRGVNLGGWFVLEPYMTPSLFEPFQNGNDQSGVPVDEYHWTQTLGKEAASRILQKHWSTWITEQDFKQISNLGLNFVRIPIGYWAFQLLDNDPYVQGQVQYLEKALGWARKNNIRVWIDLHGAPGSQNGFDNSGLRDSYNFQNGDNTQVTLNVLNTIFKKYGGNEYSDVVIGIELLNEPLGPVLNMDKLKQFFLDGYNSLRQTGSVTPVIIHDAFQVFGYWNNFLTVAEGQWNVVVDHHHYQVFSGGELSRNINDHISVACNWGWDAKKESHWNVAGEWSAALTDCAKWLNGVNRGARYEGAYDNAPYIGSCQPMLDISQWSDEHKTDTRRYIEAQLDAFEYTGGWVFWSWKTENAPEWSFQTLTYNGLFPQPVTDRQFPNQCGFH

[2] = target: T1, Xog1p, cell-wall β-1,3-exoglucanase of C. albicans (endogenous) (C. albicans (endogenous in SC5314)); assay: far-Western, overlay or dot blot; cell-wall extracts separated by SDS-PAGE, transferred to PVDF, blocked with 3% non-fat milk; probe BA-LL37 (1.1 µM) in 0.1% PBST; HRP-conjugated streptavidin, ECL; only the binder purified

With LLGDFFRKSKEKIGKEFKRIVQRIKDFLRNLVPRTES (biotinylated (site not stated)) [biotinylated LL-37 (BA-LL37)] the binding [1] was “binds” and the binding [2] was “binds”.
